Results: patent US20070148774A1

Experiments:
Test in all cases: phage ELISA
cytochrome C = target: cytochrome C
ovalbumin = target: ovalbumin
thyroglobulin = target: thyroglobulin
[1] = target: keyhole limpet haemocyanin (keyhole limpet)
trypsin inhibitor = target: trypsin inhibitor
[2] = target: glyceraldehyde-3-phosphate dehydrogenase

Measured: binding

B1: lysozyme binder scFv from the unimmunized human library (VH13.1 / VL13.1), on phage (scFv, V domains shown)
VH: QVQLVQSGAEVKKPGQSLMISCQGSGYSFSNYWIGWVRQMPGKGLEWMGIIYPGDSDTRYSPSFQGQVTISADKSISTAYLHWSSLKASDTALYYCARLVGGTPAYWGQGT
VL: HVILTQPASVSGSPGQSITISCTGSSRDVGGYNYVSWYQHHPGKAPKLLISEVTNRPSGVSNRFSGSKSGNTASLTISGLQAEDEADYFCASYTSSKTYVFGG
no binding (tested: 100 ug/ml coating): all assays above

Results are given in words; binding and its absence hold for the method and conditions named.
